# Data from PubChem BioAssay AID1347075 (National Center for Advancing Translational Sciences (NCATS), 2019).
# Out of some 400,000 compounds screened, about 5,500 (1.4%) were called active. Inconclusive means that the source gave no clear call. Such entries were picked first, then a sample of the others. The call rests on the fitted dose curve; in most records, active means well fitted cell-killing curve with a large enough effect; inconclusive means small, poorly fitted or top-dose-only effect, or effect the other way; inactive means flat fitted curve, though single readings scatter. A potency beside an inconclusive call is a rough fit, not a confirmed value.
# Assay: qHTS assay for MDR1-selective chemotherapeutics: Primary screen using the parental adenocarcinoma cell KB-3-1; further: nearly all actives have a fitted effect of over 60% in size
# Settings: KB-3-1 viability, CellTiter-Glo ATP luminescence, 72 h; series mostly up to 46.1 µM
# How it was run: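 Luminescent ATP read-out (CellTiter-Glo) measures survival of drug-naive KB-3-1 cells after 72 h compound exposure at 37 °C. Titration series was screened from lowest to highest concentration, with DMSO vehicle plates as background controls.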
# Potency means the concentration at half of the fitted maximal effect.
row,Compound,Potency
1,COc1ccc(NC(=O)C2(C)Cc3c(-c4cccc(C(F)(F)F)c4)ccnc3O2)cn1 (stereo not drawn),"inconclusive: 29.1 µM [cytotoxic, single point]"
2,N#C/C(=C\c1ccc(Br)s1)C(=O)N1CCN(c2ccccc2)CC1,inactive
3,Cc1cc(N)c(-n2cc3c(c2-c2ccc(Br)cc2)c(=O)n(C)c(=O)n3C)cc1C,"inconclusive: 29.1 µM [cytotoxic, single point]"
4,C=CCN(CC=C)S(=O)(=O)c1ccc2nc(NC(=O)C(C)C)sc2c1,active: 3.66 µM
5,Cc1noc(C)c1C(=O)N1CCN(C(=O)c2sc3cc(Cl)ccc3c2Cl)CC1,inactive
6,C/C(=N\NC(=O)c1ccccc1NC(=O)c1ccc(Cl)cc1)c1ccncc1,active: 1.46 µM
7,N#CCCN(Cc1ccccc1)C(CCc1ccccc1)C(=O)NC1CCCCC1 (stereo not drawn),"inconclusive: 29.1 µM [cytotoxic, single point]"
8,COc1cccc(S(=O)(=O)N2C[C@H](O)COC[C@H]3O[C@@H](CC(=O)N4CCN(C)CC4)CC[C@@H]32)c1,inactive
9,CCOc1ccc(C2NC(=O)c3c(COC)cc(C)nc3N2Cc2ccccc2)cc1OC (stereo not drawn),inactive
10,CCCCCCN1CCN(C2CN(CCc3ccccc3)S(=O)(=O)C2)CC1 (stereo not drawn),inactive
11,CC(C)C[C@@H](CN1CCC[C@H]1CN1C(=O)C(=O)NC[C@@H]1Cc1ccccc1)N1C[C@H](Cc2ccccc2)N(CC2CCCCCC2)C(=O)C1=O,"inconclusive: 29.1 µM [cytotoxic, single point]"
12,Cc1cc(C)n(-c2cc(C(C)(C)C)nc3c(-c4ccc(Cl)cc4)cnn23)n1,inactive
13,COc1cccc(CNC(=O)c2cc3oc4ccccc4c3n2C)c1OC,"inconclusive: 2.31 µM [cytotoxic, partial curve, poor fit]"
14,COCCOC(=O)c1cc(C(=O)c2cc(F)ccc2O)coc1=N,"inconclusive: 13 µM [rising, partial curve, poor fit]"
15,CC(CN1CCCCC1)OC(=O)CCc1ccccc1 (stereo not drawn),"inconclusive: 25.9 µM [rising, partial curve, poor fit]"
16,Cc1ccc(NC(=O)CSc2nnc3ccccn23)c(Cl)c1,inactive
17,CCOC(=O)c1ccc(-c2cccc(-c3cc(=O)oc4cc(OC)cc(OC)c34)c2)cc1,inactive
18,COc1ccccc1CNC(=O)c1cc(C2CC2)nc2c1cnn2C(C)C,inactive
19,COc1cc(OC)c(NC(=O)CCc2c(C)nc3cc(-c4ccccc4OC)nn3c2C)cc1Cl,inactive
20,O=C(c1cccs1)N1CCN(Cc2cccc([N+](=O)[O-])c2)CC1,inactive
21,COC1=C2C[C@H](C)C[C@H](OC)[C@@H](O)[C@@H](C)C=C(C)[C@H](OC(N)=O)[C@@H](OC)C=CC=C(C)C(=O)NC(=CC1=O)C2=O,"inconclusive: 0.411 µM [cytotoxic, full curve, poor fit]"
22,O=C(NC1CCCC1)C1CCN(S(=O)(=O)c2ccccc2)CC1,inactive
23,Cc1ccccc1CN(C)CCS(=O)(=O)c1cc(Cl)ccc1Cl,"inconclusive: 18.4 µM [cytotoxic, single point]"

row,Compound,Potency
1,Cc1ccc2nc(N3C(=O)CNC3=S)sc2c1,"inconclusive: 29.1 µM [cytotoxic, single point]"
2,CC1CCCCN1S(=O)(=O)c1ccc(C(=O)Nc2nnc(-c3cccs3)o2)cc1 (stereo not drawn),active: 9.2 µM
3,Cc1ccc2cc(C#N)c(NCCNC(=O)C3CCC3)nc2c1C,"inconclusive: 20.6 µM [cytotoxic, partial curve, poor fit]"
4,CC1CN(C(=O)Nc2ccccc2)c2ccccc2-[n+]2ccsc21 (stereo not drawn),"inconclusive: 1.3 µM [rising, partial curve, poor fit]"
5,COCc1nc2ccccc2n1Cc1ccccc1Br,"inconclusive: 16.4 µM [cytotoxic, single point]"
6,FC(F)(F)c1ccc(CN2C[C@@H]3C(c4ccc(Cl)nc4)C4(c5cccnc5)CC3(C4)[C@H]2c2ccccc2)cc1 (stereo partly drawn),active: 14.6 µM
7,CC(=O)c1ccc(NC(=O)CCCSc2nc(-c3ccco3)cc(C(F)(F)F)n2)cc1,"inconclusive: 29.1 µM [cytotoxic, single point]"
8,FC(F)(F)c1cc(Cl)c2nc(-c3ccc(Cl)cc3)c(Cc3ccsc3)n2c1,active: 11.6 µM
9,Cc1ccc(-n2nc3c(=O)n(C(C)C(=O)NCCCc4ccccc4)nc(C)c3c2C)cc1 (stereo not drawn),"inconclusive: 29.1 µM [cytotoxic, single point]"
10,Oc1ccc(NCc2ccccc2OCc2ccccc2F)cc1,"inconclusive: 16.4 µM [cytotoxic, single point]"
11,CC(/C=N/NC(=O)c1cc(-c2ccc(C)s2)[nH]n1)=C\c1ccccc1,active: 20.6 µM
12,O=C1CCCN1C1CCN(Cc2ccccc2)S(=O)(=O)N1 (stereo not drawn),inactive
13,CCN(Cc1ccccc1)S(=O)(=O)c1cc(C(=O)NC2CCCCCC2)ccc1OC,"inconclusive: 14.6 µM [cytotoxic, partial curve, poor fit]"
14,O=C(CSc1ncn[nH]1)Nc1ccc(Cl)c(S(=O)(=O)N2CCOCC2)c1,inactive
15,CC(C)(C)c1cc(OC(=O)C2CCCC2)ccc1O,inactive
16,COc1ccccc1OCCNC(=O)c1ccc2c(c1)CCC2,inactive
17,CC(C)n1nccc1N(Cc1ccc(Cl)cc1)S(=O)(=O)c1ccccc1,"inconclusive: 20.6 µM [cytotoxic, single point]"
18,Cc1nc(-c2ccccc2)sc1CCNC(=O)C(=O)Nc1ccc2c(c1)OCO2,"inconclusive: 29.1 µM [cytotoxic, single point]"
19,CC1CCCCC1NC(=O)Cn1nnc2ccccc2c1=O (stereo not drawn),"inconclusive: 29.1 µM [rising, single point]"
20,COC(=O)CSc1nc(C)cc(C)c1C#N,"inconclusive: 0.0073 µM [rising, full curve, poor fit]"
21,COc1cc(CN2CCN(Cc3ccc(C(F)(F)F)cc3)CC2)cc(OC)c1OC,"inconclusive: 20.6 µM [cytotoxic, single point]"
22,Cc1cccc(C(=O)NCC(=O)OCc2cc(=O)n3nc(C4CCCCC4)sc3n2)c1,"inconclusive: 29.1 µM [cytotoxic, single point]"
23,COc1ccc(C(=O)NC(=S)Nc2ccccc2[N+](=O)[O-])cc1OC,"inconclusive: 18.4 µM [rising, single point]"

# As a working copy, some entries already given:
row,Compound,Potency
21,COC1=C2C[C@H](C)C[C@H](OC)[C@@H](O)[C@@H](C)C=C(C)[C@H](OC(N)=O)[C@@H](OC)C=CC=C(C)C(=O)NC(=CC1=O)C2=O,"inconclusive: 0.411 µM [cytotoxic, full curve, poor fit]"
22,O=C(NC1CCCC1)C1CCN(S(=O)(=O)c2ccccc2)CC1,inactive
23,Cc1ccccc1CN(C)CCS(=O)(=O)c1cc(Cl)ccc1Cl,"inconclusive: 18.4 µM [cytotoxic, single point]"
1,Cc1ccc2nc(N3C(=O)CNC3=S)sc2c1,"inconclusive: 29.1 µM [cytotoxic, single point]"
2,CC1CCCCN1S(=O)(=O)c1ccc(C(=O)Nc2nnc(-c3cccs3)o2)cc1 (stereo not drawn),active: 9.2 µM

# Additional compounds

row,Compound,Potency
1,CCS(=O)(=O)N1CCN(S(=O)(=O)c2ccc3c(c2)OCCO3)CC1,"inconclusive: 0.0041 µM [rising, full curve, poor fit]"
2,Cc1cccc(N2CCN(S(=O)(=O)c3ccc4[nH]c5c(c4c3)CCCCC5)CC2)c1C,"inconclusive: 29.1 µM [cytotoxic, single point]"
3,CC1Cc2ccccc2N1C(=O)COC(=O)C1(c2ccccc2F)CCCC1 (stereo not drawn),"inconclusive: 29.1 µM [cytotoxic, single point]"
4,COc1cccc(NC(=O)C2=C(C)C(=O)OC23CCN(C(C)=O)CC3)c1,inactive
5,Cc1ccc(S(=O)(=O)NCC(C)n2nc(C)nc2C)cc1 (stereo not drawn),"inconclusive: 29.1 µM [rising, single point]"
6,CC(C)(C)N1C(=O)Cc2c1nc(N)c1c(N)nc(N3CCCCC3CO)c(C#N)c21 (stereo not drawn),"inconclusive: 18.4 µM [cytotoxic, single point]"
7,Cc1cc2cc(CN(Cc3cccs3)C(=S)NCC3CCCO3)c(=O)[nH]c2cc1C (stereo not drawn),"inconclusive: 10.3 µM [cytotoxic, partial curve, poor fit]"
8,COc1cc2c(cc1OC)C(COc1ccc3c(C)cc(=O)oc3c1)N(C(=O)c1cc(Cl)ccc1OC)CC2 (stereo not drawn),inactive
9,CCC(=O)N1c2ccc(S(=O)(=O)NCc3ccc(F)cc3)cc2CC1C (stereo not drawn),"inconclusive: 29.1 µM [cytotoxic, single point]"
10,CCCCc1c(-c2ccccc2OC)ncn1Cc1ccc(-c2ccccc2)cc1,"inconclusive: 29.1 µM [cytotoxic, single point]"
11,CC(C)n1cc(/C=C2\NC(=O)N(c3cccc(Cl)c3)C2=O)c2ccccc21,"inconclusive: 13 µM [cytotoxic, single point]"
12,CCc1ccc(N2C=C(C(=O)OC)C(c3cccc4ccccc34)C(C#N)=C2N)cc1 (stereo not drawn),"inconclusive: 14.6 µM [cytotoxic, partial curve, poor fit]"
13,Cc1ccc(CN2CCSc3ccc(C(=O)NCC(C)c4ccccc4)cc32)cc1 (stereo not drawn),inactive
14,Cc1ccc(CN2CCN(C3CCN(C(=O)Nc4ccc(C)cc4Cl)CC3)C(=O)C2=O)cc1,inactive
15,Cc1nc(C(=O)NNC(=O)c2ccc(Cl)cc2)cs1,"inconclusive: 18.4 µM [cytotoxic, partial curve]"
16,CCCS(=O)(=O)NC(=O)C1(C)CCN(C(=O)c2ccc3c(c2)OCO3)C1 (stereo not drawn),inactive
17,CC(C)(C)OC(=O)N(CCc1ccccc1)Cc1ccccc1OCc1cccc(NC(=O)C2CCC2)c1,"inconclusive: 29.1 µM [cytotoxic, single point]"
18,CCN(CC)c1ncnc2c1ncn2[C@H]1CN(Cc2cc(OC)c(OC)c(OC)c2)C[C@@H](CO)O1,inactive
19,CN1CC(=O)N2C(c3cccc([N+](=O)[O-])c3)c3[nH]c4ccccc4c3C[C@H]2C1=O (stereo partly drawn),inactive
20,COc1ccc2occ(C(=O)c3ccccc3)c2c1,"inconclusive: 0.82 µM [rising, full curve, poor fit]"
21,COc1ccc(OC)c(C2=NOC(C(=O)NCc3ccco3)C2)c1 (stereo not drawn),"inconclusive: 0.731 µM [cytotoxic, full curve, poor fit]"
22,Cc1cc2cc(C(c3nnnn3CC3CCCO3)N3CCCc4ccccc43)c(=O)[nH]c2cc1C (stereo not drawn),"inconclusive: 29.1 µM [cytotoxic, single point]"
